This is an account of results in the supplement of paper PMC11237882.

The list shows a part of the results. Values are worked out from sequencing counts and are noisy.

T1: Homer1 EVH1 domain
T1 chain: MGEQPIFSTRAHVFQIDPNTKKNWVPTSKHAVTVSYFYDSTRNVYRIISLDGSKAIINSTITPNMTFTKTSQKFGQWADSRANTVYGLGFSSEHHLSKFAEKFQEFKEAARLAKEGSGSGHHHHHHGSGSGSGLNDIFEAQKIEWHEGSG

The test addresses T1, Homer1 EVH1 domain. As to the kind of experiment: enrichment score (AUC of log2 frequency ratio across FACS sorting rounds) (log2 AUC); higher = stronger enrichment for Homer1 EVH1 binding.
On to LPAATILQDRHLLRAGHVGPARALAAWKRSRCSPRG, for which the enrichment score was -1.23.
Under SITPIMYPASFWFEVPSSAYVFLIVINLFIGITATV stands 3.05.
In the case of SPKAAPRPTGARPARLTRYARLPLGALSLTRRLGPP, the enrichment score was 0.109.
Regarding KDVFFFLFFLSVWLVAYGVTTQALLHPHDGRLEWIF, the enrichment score was -0.132.
The value for NFFQNIGSITLFAVFGTAISAFVVGGGIYFLGQADV was 0.895; that for MTNKCLLQIALLLCFSTTALSMSYNLLGFLQRSSNF was 3.11; that for MNGMNHSVVSEFVFMGLTNSREIQLLLFVFSLLFYF was -1.83.
The value for YLFDNGGTVFFAIFMAIWATVFLEFWKRRRSILTYT was 2.27.
Regarding AAAELGAELLGESIIFITACSCLMLEYWRHQLQQRR, the enrichment score stood at 3.51.
The value for FTYMLIGEIFELMQFLFVVAFTTFLVSCVDYDILFD was 2.5; that for MESKALLVLTLAVWLQSLTASRGGVAAADQRRDFID was 0.181.
The value for HPPNERTHLVILGAILLCLGVALTFIFRLRKGRMMD was 2.21; that for YTTNPGYQAYVILISLISFFIPFLVILYSFMGILNT was 3.36.
Under SLPYILILSVKLVMQHITGISLGIGLLTTFMYANKS stands 1.31; under LGNTWKQNLTELSGGQRSLVALSLILSMLLFKPAPI, 1.48.
As to YQALEQGGMTFGWVCWMILFDSSLYFLCGWYLSNLI, the enrichment score is -3.34.
Under LGFLGLLLGIAGLRCTNIGGLELSRKAKLAATAGAH stands -1.25; under MKTLPVLVLSLTLLTVFSETSPILTEKQAKQLLRSR, 1.77.
Under LRLGALVAPVVSAFSLAFCALPFMGFGKFVQYCPGT stands 0.0996; under LWVFMFVCALGTVGLFLPPLFQTHAAFEGPYAAQRD, 2.12.
The value for YYFGNWAFLGVFLIGLIVSCCKGKKSVIEGVDEDSD was 0.597.
For the molecule YRDTFIVTLGNAITSILAGFAIFSVLVYMSQELGVP, the enrichment score was found to be 3.55.
Under MKEHIIYQKLYGLILMSSFIFLSDTLSLKGKKLDFF stands 1.15; under MAKCDACKRQGKLSESLKWRGEMKHFCNLLCILMFC, -1.66; under HASLVRPHPSRDQKRGVYFALCLSLMVGSLLETIFI, 1.77.
The value for GSIMERASGKTENTWLLGFLIALPILIVTTAIVLAR was 3.56; that for QTRHEQLPSPSLLTMWTLKSSLVLLLCLTCSYAFMF was 2.91; that for KTLLLPVVMVITCFIFKKTVRDISYVLATNIYLRKQ was 0.482.
Take CGEKMTLCISVLLALTVFLLLISKIVPPTSLDVPLV: the enrichment score is -0.0182.
The value for TIKRFVVLISTLGTYNSLLIISWLPVLGFLQLPYLD was 1.46; that for LDTNQHRTHAMRLLDGLEVTAREKRLKVARAILYVA was 2.42.
Take LKSLPVLLIIYFVSLLAPWLEFWKSGAHLPGNKENN: the enrichment score is 1.66.
Take ILQGFSCEWTIQIFLFSLFTTIYALTITGNGAIAFA: the enrichment score is -3.36.
Consider FYLPVVIMTVLYIHISLASRSRVHKHRPEGPKEKKT, for which the enrichment score was determined as 2.4.
The value for MVAWRSAFLVCLAFSLATLVQRGSGDFDDFNLDDAV was 2.57; that for IAGIAIPAMIIGIPVYVGRKIHNRYEGKDVSKHKRN was 1.14; that for AKWVAIASIIIGLLIIGISCAVHFTRKGAGKSDIRG was 2.45.
The value for IAGAILLCIIFSLSNIIYFSAALYRIPKPELHKKET was 1.62; that for KVIPLIGEYLLFIMIFVTLSIIVTVFVINVHHRSSS was -0.356; that for AFLVIYLITIMGNLGLIAVIWKDPHLHIPMYLLLGN was 0.811.
The value for HCLAAFKRLEHKEVLVGLLFLVFPFIPASNLFFRVG was -1.41; that for PGYLTAEVLELAGLWVIVALNVWLILSGSPFIDNSR was 3.12; that for PYISGPLGFFYIYAYVFENIKSVRLEALLLSLLSIV was -0.45.
TMIFVTLSIMVTVFAINIHHRSSSTHNAMAPLVRKI: the enrichment score worked out at 0.65.
